Test results taken from patent US4338433A, “Moranoline derivatives and process for preparation thereof” (Nippon Shinyaku Co. Ltd., priority 1979, dated 1982).
The name of at least one read-out is uncertain.

Each molecule was assayed against T1, α-1,4-glucanglucohydrolase (Rhizopus arrhizus, UniProt P07683). Settings: 1 hour, 40° C., substrate adsorbed on Dowex 50W×2 (H+); relative to decomposition down to glucosylmoranoline = 100%.
T1 sequence (P07683 26-604): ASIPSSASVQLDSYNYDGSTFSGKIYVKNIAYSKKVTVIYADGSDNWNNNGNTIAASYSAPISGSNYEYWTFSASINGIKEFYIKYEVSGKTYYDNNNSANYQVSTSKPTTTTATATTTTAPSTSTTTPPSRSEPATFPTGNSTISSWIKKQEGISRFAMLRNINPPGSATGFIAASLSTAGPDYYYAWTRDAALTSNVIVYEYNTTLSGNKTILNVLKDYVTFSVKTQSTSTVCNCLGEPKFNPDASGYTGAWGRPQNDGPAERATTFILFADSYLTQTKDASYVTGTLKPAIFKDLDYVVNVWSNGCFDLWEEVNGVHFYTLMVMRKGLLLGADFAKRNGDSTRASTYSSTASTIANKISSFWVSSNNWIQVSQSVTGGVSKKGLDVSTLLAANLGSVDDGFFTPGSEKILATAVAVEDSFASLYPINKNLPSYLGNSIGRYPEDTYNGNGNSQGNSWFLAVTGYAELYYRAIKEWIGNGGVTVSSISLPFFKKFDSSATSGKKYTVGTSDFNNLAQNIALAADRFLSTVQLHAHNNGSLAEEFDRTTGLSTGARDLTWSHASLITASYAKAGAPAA
Format: biochemical
Source text: Practically, reactions of the respective stages are advanced on a mixture of compounds differing in the glucose number (m). Accordingly, in order to accumulate intended G-MR in the liquid reaction mixture, it is indispensable that rate constants should be sufficiently high but the rate constant k1 should be sufficiently low. FIG. 4 clarifies this point. FIG. 4 will now be explained. A predetermined amount of N-methyloligoglycosylmoranoline is adsorbed on 1 g of Dowex 50W×2 (H^+) in an Erlenmeyer flask having a capacity of 125 ml, and they are suspended in 50 ml of distilled water and 10 mg of α-1,4-glucanglucohydrolase is added to the suspension. Incubation is carried out at 40° C., and 500 μl of the liquid is sampled at predetermined intervals and the amount of glucose is determined. When maltose is used as the substrate, it is mixed with 1 g of Dowex 50W×2 (H^+) and in this state, incubation is carried out at 40° C.
1 ml of 0.3 N Ba(OH)2 and 1 ml of 5% ZnSO4 are added to 500 μl of the reaction mixture liquid and centifugal separation is carried out under a load of 2000 g for 10 minutes. 30 μl of the supernatant is taken and 3 ml of a commercially available glucose color reagent (manufactured by Boehunger Mannheim Co.; new blood sugar test) is added to the sampled supernatant. The mixture is sufficiently stirred and allowed to stand at room temperature for 35 minutes and the absorbance at 420 nm is measured. Separately, a glucose reference reagent (9.1 mg/dl) is similarly treated and the absorbance at 420 nm is measured. Based on these measurements, the amount of glucose formed in the reaction mixture liquid is determined.
About 22 units/mg of α-1,4-glucanglucohydrolase (crystal) derived from Rhizopus niveus (supplied by Seikagaku Kogyo K.K.)
The reaction time is plotted on the abscissa and the ratio of decomposition based on complete decomposition of glucose is plotted on the ordinate. […]

| SMILES | decomposition ratio |
| --- | --- |
| OC[C@H]1NC[C@H](O)[C@@H](O)[C@@H]1O[C@H]1O[C@H](CO)[C@@H](O[C@H]2O[C@H](CO)[C@@H](O[C@H]3O[C@H](CO)[C@@H](O)[C@H](O)[C@H]3O)[C@H](O)[C@H]2O)[C@H](O)[C@H]1O [4-(α-D-maltotriosyl)-moranoline] | about 50% |
| OC[C@H]1NC[C@H](O)[C@@H](O)[C@@H]1O[C@H]1O[C@H](CO)[C@@H](O[C@H]2O[C@H](CO)[C@@H](O)[C@H](O)[C@H]2O)[C@H](O)[C@H]1O [4-(α-D-maltosyl)-moranoline] | about 53% |
| OC[C@H]1NC[C@H](O)[C@@H](O)[C@@H]1O[C@H]1O[C@H](CO)[C@@H](O)[C@H](O)[C@H]1O [4-(α-D-glucosyl)-moranoline] | about 3% |
